At least one peptide structure holds a part that was inferred or is arguable (an end, a ring closure or a residue). Starred links: 1 amine or outer side, 2 acyl side, 3 side chain; linkers in the order of their positions; H or OH if unused. Non-standard residues stand in square brackets, D forms with d. Residues, ends and D or L forms follow the SMILES beside them. X1 = CC[C@@H](C)[C@@H](O[*:1])C(=O)[*:2]; NMeVal(β-OH) = CN[C@H](C(=O)O)C(C)(C)O; NMeaIle = CC[C@@H](C)[C@H](NC)C(=O)O; NMeF = CN[C@@H](Cc1ccccc1)C(=O)O; aIle = CC[C@@H](C)[C@H](N)C(=O)O; NMeL = CN[C@@H](CC(C)C)C(=O)O; NMeV = CN[C@H](C(=O)O)C(C)C
The compounds below were run on Test organisms (Candida albicans, C. kefyr, C. grabrata, Cryptococcus neoformans) (assay: Antifungal activity, overall statement in text (agar dilution method)). Settings: partly compared with compound 1.
Format: cell-based
With `CC[C@@H](C)[C@@H]1NC(=O)[C@@H]2CCCN2C(=O)[C@H](Cc2ccccc2)N(C)C(=O)[C@H](Cc2ccccc2)NC(=O)[C@H](C(C)C)N(C)C(=O)[C@@H]([C@H](C)CC)OC(=O)[C@H](C(C)(C)O)N(C)C(=O)[C@H](CC(C)C)NC(=O)[C@H](CC(C)C)N(C)C1=O` [Compound 23, cyclo (L-aIle-L-MeLeu-L-Leu-L-βHOMeVal-D-Hmp-L-MeVal-L-Phe-L-MePhe-L-Pro)] (cyclo(F[NMeF]P[aIle][NMeL]L[NMeVal(β-OH)][X1][NMeV])) the “antifungal activity (in words)” value was “active as much as compound 1”. With `CC[C@@H](C)[C@@H]1NC(=O)[C@@H]2CCCN2C(=O)[C@H](Cc2ccccc2)N(C)C(=O)[C@H](Cc2ccccc2)NC(=O)[C@H](C(C)C)N(C)C(=O)[C@@H]([C@H](C)CC)OC(=O)[C@H]([C@@H](C)O)N(C)C(=O)[C@H](CC(C)C)NC(=O)[C@H](C(C)C)N(C)C1=O` [Compound 19, cyclo(L-aIle-L-MeVal-L-Leu-L-MeThr-D-Hmp-L-MeVal-L-Phe-L-MePhe-L-Pro)] (HELM PEPTIDE1{F.[meF].P.[CC[C@@H](C)[C@H](N[*:1])C(=O)[*:2]].[meV].L.[meT].[CC[C@@H](C)[C@@H](O[*:1])C(=O)[*:2]].[meV]}$PEPTIDE1,PEPTIDE1,1:R1-9:R2$$$V2.0) the “antifungal activity (in words)” value was “high antifungal activity”. For `CC[C@@H](C)[C@@H]1NC(=O)[C@@H]2CCCN2C(=O)[C@H](Cc2ccccc2)N(C)C(=O)[C@H](Cc2ccccc2)NC(=O)[C@H](C(C)C)N(C)C(=O)[C@@H]([C@H](C)CC)OC(=O)[C@H](C(C)(C)O)N(C)C(=O)[C@H]([C@H](C)CC)NC(=O)[C@H](C(C)C)N(C)C1=O` [Compound 24, cyclo(L-aIle-L-MeVal-L-aIle-βHOMeVal-D-Hmp-L-MeVal-L-Phe-L-MePhe-L-Pro)] (cyclo(F[NMeF]P[aIle][NMeV][aIle][NMeVal(β-OH)][X1][NMeV])), the “antifungal activity (in words)” value was “more active than compound 1”. With `CC[C@@H](C)[C@@H]1NC(=O)[C@@H]2CCCN2C(=O)[C@H](Cc2ccccc2)N(C)C(=O)[C@H](Cc2ccccc2)NC(=O)[C@H](C(C)C)N(C)C(=O)[C@@H]([C@H](C)CC)OC(=O)[C@H](C(C)(C)O)N(C)C(=O)[C@H](CC(C)C)NC(=O)[C@H]([C@H](C)CC)N(C)C1=O` [Compound 22, cyclo (L-aIle-L-MeaIle-L-Leu-L-βHOMeVal-D-Hmp-L-MeVal-L-Phe-L-MePhe-L-Pro)] (cyclo(F[NMeF]P[aIle][NMeaIle]L[NMeVal(β-OH)][X1][NMeV])) the “antifungal activity (in words)” value was “active as much as compound 1”.

— patent US5633346A, “Process for systhesizing cyclic peptides” (priority 1992, dated 1997)
